{"source": "patent US10160812B2", "about": "(MedImmune, LLC, priority 2014, dated 2018)", "assay": "Fmoc solid-phase peptide synthesis; 2-Chlorotrityl chloride resin", "conditions": "whole synthesis, scale 0.32 mmol"}
{"substance": "(2S,4R)-4-(2-((1R,3R)-1-acetoxy-3-((2S,3S)-2-((2R,4R)-1,4-dimethylpiperidine-2-carboxamido)-N-ethyl-3-methylpentanamido)-4-methylpentyl)thiazole-4-carboxamido)-5-(4-((S)-6-amino-2-(6-(2,5-dioxo-2,5-dihydro-1H-pyrrol-1-yl)hexanamido)hexanamido)phenyl)-2-methylpentanoic acid", "values": [{"measurement": "isolated mass", "value": 0.095, "unit": "g"}, {"measurement": "isolated yield", "value": 22.48, "unit": "%"}]}
